Assay: general procedure: Fmoc solid-phase peptide synthesis; preloaded Fmoc-glycine sasrin resin (0.7 mmol/g); HBTU/HOBT
Details: for conjugation yield: conjugation step; for crude HPLC purity / crude mass / isolated yield / isolated mass: whole synthesis; for crude HPLC purity / isolated yield: scale of the general procedure 1.0 mmol

Substance: DimethylGly-Ser-Cys(Acm)-Gly-NH(CH2)3 NH2
- step yield (late stage modification step): 65%

Substance: DimethylGly-Ser-Cys(Acm)-Gly-NH(CH2)3 NH-Vancomycin
- conjugation yield (run 1): 64%
- conjugation yield (run 2): 75%

Substance: dimethylGly-Ser(t-Butyl)-Cys(Acm)-(βA3)-Lys(N^ε -Vancomycin)-Gly-OH
- step yield (purification step): 27%
- crude HPLC purity: 34%

Substance: DimethylGly-Ser-Cys(Acm)-(βAla)3 -Lys(N^ε -Vancomycin)-Gly-OH
- crude HPLC purity (run 1): 21%
- crude HPLC purity (run 2): 31%
- crude mass (scale 50 mg (24.5 μmol) resin): 24 mg
- crude mass (scale 50 mg (25 μmol) resin): 10 mg
- isolated yield (run 1): 4%
- isolated yield (run 2): 11%
- isolated mass (run 1): 2 mg
- isolated mass (run 2): 6 mg
